Read-outs that look alike come from different tables or passages of the source.
Conditions: broilers, 43 to 46 days of age
[1] = 20 ppm of copper added to base diet

Compound: Copper butyrate
- Consumption of feed [1]: 210 g

Compound: O=S(=O)([O-])[O-].[Cu+2] [copper sulfate]
- Consumption of feed [1]: 206 g
- Consumption of feed (150 ppm of copper added to base diet): 206 g
